Taken from: PubChem BioAssay AID1159600 (NIAID, 2016)

- Assay: 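Effect of silencing core TLR signalling genes on R848-induced TNF reporter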 (primary screen)
- System: human THP-1 TNF reporter clone B5, made macrophage-like with PMA
- Reagent: single siRNA against human genes
- Duration: 4 h ligand stimulation, assayed 48 to 72 h after siRNA transfection
- Challenge: R848 (TLR7/8 agonist) for 4 hours before lysis; dose not given
- Measurement: 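Robust z-score of firefly over renilla TNF promoter signal after 4 h R848, plate median/MAD normalised, relative to negative controls, averaged across replicates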
- Scale: TNF reporter z-score: higher = stronger TNF promoter reporter signal after R848
- Hit rule: 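siRNAs graded by distance of mean z-score from zero in steps of 1, 1.5, 2 and 2.5; active calls sit at roughly -1.5 or below, or 1.5 or above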
- Calls: active = strong change in TNF reporter (up or down); inactive = little change
Shown is an unselected part of 756 deposited reagents. 134 of all reagents (18%) count as active. 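Active includes both reduced and increased reporter signal, though most active siRNAs reduce it; R848 dose unknown.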 The numbers tell different reagents against one gene apart. The record does not give: the amount of reagent.

What is on record for TRAF6 #1?
TNF reporter z-score: -3.02; outcome: active

For TRAF6 #2, what was measured?
TNF reporter z-score: -3.45; outcome: active

With TRAF6 #3, what was measured?
TNF reporter z-score: -2.06; outcome: active

What is on record for TRAF6 #4?
TNF reporter z-score: -1.92; outcome: active

How did the screen score TRAF6 #5?
TNF reporter z-score: -0.729; outcome: inactive

For TRAF6 #6, how do the results read?
TNF reporter z-score: -1.58; outcome: active

For TRAF3 #1, how do the results read?
TNF reporter z-score: 1.56; outcome: active

What is on record for TRAF3 #2?
TNF reporter z-score: -1.13; outcome: inactive

Which result is listed for TRAF3 #3?
TNF reporter z-score: -0.173; outcome: inactive

Which result is listed for TRAF3 #4?
TNF reporter z-score: -0.884; outcome: inactive

With TRAF3 #5, how do the results read?
TNF reporter z-score: -1.29; outcome: inactive

For TRAF3 #6, what was measured?
TNF reporter z-score: 0.089; outcome: inactive

How did the screen score TBKBP1 #1?
TNF reporter z-score: -0.17; outcome: inactive

What did the screen give for TBKBP1 #2?
TNF reporter z-score: -1.78; outcome: active

What did the screen give for TBKBP1 #3?
TNF reporter z-score: -0.486; outcome: inactive

How did the screen score TBKBP1 #4?
TNF reporter z-score: 0.86; outcome: inactive

For TBKBP1 #5, what does the deposit list?
TNF reporter z-score: 0.0271; outcome: inactive

Which result is listed for TBKBP1 #6?
TNF reporter z-score: -0.103; outcome: inactive

Which result is listed for MAP2K6 #1?
TNF reporter z-score: -1.22; outcome: inactive

For MAP2K6 #2, what was measured?
TNF reporter z-score: -0.566; outcome: inactive

How did the screen score MAP2K6 #3?
TNF reporter z-score: 0.0239; outcome: inactive

How did the screen score MAP2K6 #4?
TNF reporter z-score: -0.853; outcome: inactive

What is on record for MAP2K6 #5?
TNF reporter z-score: 0.533; outcome: inactive

For MAP2K6 #6, what does the deposit list?
TNF reporter z-score: -0.7; outcome: inactive

For MAPK3 #1, how do the results read?
TNF reporter z-score: -0.852; outcome: inactive

With MAPK3 #2, what does the deposit list?
TNF reporter z-score: -1.69; outcome: active

With MAPK3 #3, what was measured?
TNF reporter z-score: -1.33; outcome: inactive

With MAPK3 #4, what does the deposit list?
TNF reporter z-score: -0.437; outcome: inactive

What is on record for MAPK3 #5?
TNF reporter z-score: 0.0946; outcome: inactive

For MAPK3 #6, what does the deposit list?
TNF reporter z-score: -1.34; outcome: inactive

4 successive records from above:
TRAF3 #1 → TNF reporter z-score = 1.56; outcome = active
TRAF3 #2 → TNF reporter z-score = -1.13; outcome = inactive
TRAF3 #3 → TNF reporter z-score = -0.173; outcome = inactive
TRAF3 #4 → TNF reporter z-score = -0.884; outcome = inactive

The list goes on:
How did the screen score DAB2IP #1?
TNF reporter z-score: -0.729; outcome: inactive

With DAB2IP #2, what was measured?
TNF reporter z-score: -1.68; outcome: active

For DAB2IP #3, what was measured?
TNF reporter z-score: 0.878; outcome: inactive

For DAB2IP #4, what was measured?
TNF reporter z-score: -1.15; outcome: inactive

What is on record for DAB2IP #5?
TNF reporter z-score: -1.25; outcome: inactive

How did the screen score DAB2IP #6?
TNF reporter z-score: -0.393; outcome: inactive

What did the screen give for IKBKB #1?
TNF reporter z-score: -0.693; outcome: inactive

What is on record for IKBKB #2?
TNF reporter z-score: 1.07; outcome: inactive

What did the screen give for IKBKB #3?
TNF reporter z-score: -0.841; outcome: inactive

What did the screen give for IKBKB #4?
TNF reporter z-score: -0.626; outcome: inactive

With IKBKB #5, how do the results read?
TNF reporter z-score: -0.188; outcome: inactive

Which result is listed for IKBKB #6?
TNF reporter z-score: -0.653; outcome: inactive

How did the screen score TLR7 #1?
TNF reporter z-score: -0.785; outcome: inactive

For TLR7 #2, what does the deposit list?
TNF reporter z-score: 1.61; outcome: active

What is on record for TLR7 #3?
TNF reporter z-score: -0.311; outcome: inactive

How did the screen score TLR7 #4?
TNF reporter z-score: -0.234; outcome: inactive

For TLR7 #5, what does the deposit list?
TNF reporter z-score: 0.284; outcome: inactive

How did the screen score TLR7 #6?
TNF reporter z-score: -0.168; outcome: inactive
